# Test results: the supplement of paper PMC8728848
# This is one part of the list.
# B1: Aap brpt (Staphylococcus epidermidis) (protein)
# chain: VDGDPITSTEEIPFDKKREFDPNLAPGTEKVVQKGEPGTKTITTPTTKNPLTGEKVGEGEPTEKITKQPVDEIVHYGGEEIKTGHKDEFDPNAPKGSQTTQPGKPGVKNPDTGEVVTPPVDDVTKYGPVDGDPITSTEEIPFDKKREFDPNLAPGTEKVVQKGEPGTKTITTPTTKNPLTGEKVGEGEPTEKITKQPVDEIVHYGGEEIKPGHKDEFDPNAPKGSQEDVPGKPGVKNPDTGEVVTPPVDDVTKYGPVDGDSITSTEEIPFDKKREFDPNLAPGTEKVVQKGEPGTKTITTPTTKNPLTGEKVGEGEPTEKITKQPVDEIVHYGGEQIPQGHKDEFDPNAPVDSKTEVPGKPGVKNPDTGEVVTPPVDDVTKYGPVDGDSITSTEEIPFDKKREFDPNLAPGTEKVVQKGEPGTKTITTPTTKNPLTGEKVGEGKSTEKVTKQPVDEIVEYGPTK
# Key:
# Experiment in all cases: glycan array binding signal (z-score within array); higher = stronger binding
# Conditions in all cases: glycan notation: IUPAC condensed, linker removed
# [1] = biological target: Man(a1-2)Man(a1-3)[Man(a1-2)Man(a1-6)]Man(a1-6)[Man(a1-2)Man(a1-2)Man(a1-3)]Man
# In short: (§1)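 Columns mapping to the same glycan were averaged after glycan names were converted to IUPAC-condensed notation. The data come from 3228 arrays in the Consortium for Functional Glycomics database, limited to those with an available protein sequence. Binding is reported as a within-array Z-score averaged across arrays of one protein sequence and across linkers.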
# [2] = biological target: Man(a1-2)Man(a1-3)[Man(a1-2)Man(a1-6)]Man(a1-6)[Man(a1-2)Man(a1-2)Man(a1-3)]Man(b1-4)GlcNAc(b1-4)GlcNAc
# In short: as §1
# [3] = biological target: Man(a1-2)Man(a1-3)[Man(a1-6)]Man(a1-6)[Man(a1-2)Man(a1-3)]Man(b1-4)GlcNAc(b1-4)GlcNAc
# In short: as §1
# [4] = biological target: Man(a1-2)Man(a1-6)[Man(a1-3)]Man(a1-6)[Man(a1-2)Man(a1-2)Man(a1-3)]Man
# In short: as §1
# [5] = biological target: Man(a1-2)Man(a1-6)[Man(a1-3)]Man(a1-6)[Man(a1-2)Man(a1-2)Man(a1-3)]Man(b1-4)GlcNAc(b1-4)GlcNAc
# In short: as §1
# Man(a1-3)[Man(a1-6)]Man = biological target: Man(a1-3)[Man(a1-6)]Man
# In short: as §1
# [6] = biological target: Man(a1-3)[Man(a1-6)]Man(a1-6)[Man(a1-2)Man(a1-3)]Man(b1-4)GlcNAc(b1-4)GlcNAc
# In short: as §1
# [7] = biological target: Man(a1-3)[Man(a1-6)]Man(a1-6)[Man(a1-3)]Man
# In short: as §1
# [8] = biological target: Man(a1-3)[Man(a1-6)]Man(a1-6)[Man(a1-3)]Man(b1-4)GlcNAc(b1-4)GlcNAc
# In short: as §1
# [9] = biological target: Man(a1-3)[Man(a1-6)]Man(b1-4)GlcNAc(b1-4)GlcNAc
# In short: as §1
# [10] = biological target: Man(a1-3)[Man(a1-6)]Man(b1-4)GlcNAc(b1-4)[Fuc(a1-6)]GlcNAc
# In short: as §1
# Man(a1-6)Man = biological target: Man(a1-6)Man
# In short: as §1
# Man(b1-4)GlcNAc = biological target: Man(b1-4)GlcNAc
# In short: as §1
# MurNAc(b1-4)GlcNAc = biological target: MurNAc(b1-4)GlcNAc
# In short: as §1
# Neu5Ac(a2-3)Gal = biological target: Neu5Ac(a2-3)Gal
# In short: as §1
# [11] = biological target: Neu5Ac(a2-3)Gal(b1-3)GalNAc
# In short: as §1
# [12] = biological target: Neu5Ac(a2-3)Gal(b1-3)GalNAc(b1-3)Gal(a1-4)Gal(b1-4)Glc
# In short: as §1
# [13] = biological target: Neu5Ac(a2-3)Gal(b1-3)GalNAc(b1-4)[Neu5Ac(a2-3)]Gal(b1-4)Glc
# In short: as §1
# [14] = biological target: Neu5Ac(a2-3)Gal(b1-3)GalNAc(b1-4)[Neu5Ac(a2-8)Neu5Ac(a2-3)]Gal(b1-4)Glc
# In short: as §1
# [15] = biological target: Neu5Ac(a2-3)Gal(b1-3)GalNAc6S
# In short: as §1
# [16] = biological target: Neu5Ac(a2-3)Gal(b1-3)GlcNAc
# In short: as §1
# [17] = biological target: Neu5Ac(a2-3)Gal(b1-3)GlcNAc(b1-2)Man
# In short: as §1
# [18] = biological target: Neu5Ac(a2-3)Gal(b1-3)GlcNAc(b1-2)Man(a1-3)[GlcNAc(b1-4)][Neu5Ac(a2-3)Gal(b1-3)GlcNAc(b1-2)Man(a1-6)]Man(b1-4)GlcNAc(b1-4)GlcNAc
# In short: as §1
# [19] = biological target: Neu5Ac(a2-3)Gal(b1-3)GlcNAc(b1-2)Man(a1-3)[Neu5Ac(a2-3)Gal(b1-3)GlcNAc(b1-2)Man(a1-6)]Man(b1-4)GlcNAc(b1-4)GlcNAc
# In short: as §1
# [20] = biological target: Neu5Ac(a2-3)Gal(b1-3)GlcNAc(b1-2)[Neu5Ac(a2-3)Gal(b1-3)GlcNAc(b1-4)]Man(a1-6)[Neu5Ac(a2-3)Gal(b1-3)GlcNAc(b1-2)Man(a1-3)]Man(b1-4)GlcNAc(b1-4)GlcNAc
# In short: as §1
# [21] = biological target: Neu5Ac(a2-3)Gal(b1-3)GlcNAc(b1-3)Gal(b1-3)GlcNAc
# In short: as §1
# [22] = biological target: Neu5Ac(a2-3)Gal(b1-3)GlcNAc(b1-3)Gal(b1-4)GlcNAc
# In short: as §1
# [23] = biological target: Neu5Ac(a2-3)Gal(b1-3)GlcNAc(b1-3)GalNAc
# In short: as §1
# [24] = biological target: Neu5Ac(a2-3)Gal(b1-3)GlcNAc(b1-4)Gal(b1-4)Glc
# In short: as §1
# [25] = biological target: Neu5Ac(a2-3)Gal(b1-3)GlcNAc(b1-6)GalNAc
# In short: as §1
# [26] = biological target: Neu5Ac(a2-3)Gal(b1-3)GlcNAc6S
# In short: as §1
# [27] = biological target: Neu5Ac(a2-3)Gal(b1-3)[Fuc(a1-4)]GlcNAc
# In short: as §1
# [28] = biological target: Neu5Ac(a2-3)Gal(b1-3)[Fuc(a1-4)]GlcNAc(b1-3)Gal(b1-3)[Fuc(a1-4)]GlcNAc
# In short: as §1
# [29] = biological target: Neu5Ac(a2-3)Gal(b1-3)[Fuc(a1-4)]GlcNAc(b1-3)Gal(b1-4)[Fuc(a1-3)]GlcNAc
# In short: as §1
# [30] = biological target: Neu5Ac(a2-3)Gal(b1-3)[GlcNAc(b1-6)]GalNAc
# In short: as §1
# [31] = biological target: Neu5Ac(a2-3)Gal(b1-3)[Neu5Ac(a2-6)]GalNAc
# In short: as §1
# [32] = biological target: Neu5Ac(a2-3)Gal(b1-3)[Neu5Ac(a2-6)]GlcNAc(b1-3)[Fuc(a1-3)[Gal(b1-4)]GlcNAc(b1-6)]Gal(b1-4)Glc
# In short: as §1
binder,measurement,setting,value
B1,glycan array binding signal (z-score),[1],2.59
same,glycan array binding signal (z-score),[2],-0.696
same,glycan array binding signal (z-score),[3],0.143
same,glycan array binding signal (z-score),[4],0.84
same,glycan array binding signal (z-score),[5],0.329
same,glycan array binding signal (z-score),Man(a1-3)[Man(a1-6)]Man,1.58
same,glycan array binding signal (z-score),[6],2.29
same,glycan array binding signal (z-score),[7],-1
same,glycan array binding signal (z-score),[8],-1.49
same,glycan array binding signal (z-score),[9],0.081
same,glycan array binding signal (z-score),[10],-0.618
same,glycan array binding signal (z-score),Man(a1-6)Man,1.21
same,glycan array binding signal (z-score),Man(b1-4)GlcNAc,0.142
same,glycan array binding signal (z-score),MurNAc(b1-4)GlcNAc,1.17
same,glycan array binding signal (z-score),Neu5Ac(a2-3)Gal,0.475
same,glycan array binding signal (z-score),[11],1.35
same,glycan array binding signal (z-score),[12],-2.25
same,glycan array binding signal (z-score),[13],1.23
same,glycan array binding signal (z-score),[14],0.087
same,glycan array binding signal (z-score),[15],0.067
same,glycan array binding signal (z-score),[16],0.6
same,glycan array binding signal (z-score),[17],-0.096
same,glycan array binding signal (z-score),[18],1.1
same,glycan array binding signal (z-score),[19],-1.44
same,glycan array binding signal (z-score),[20],-0.162
same,glycan array binding signal (z-score),[21],-1.16
same,glycan array binding signal (z-score),[22],-1.25
same,glycan array binding signal (z-score),[23],0.672
same,glycan array binding signal (z-score),[24],-1.15
same,glycan array binding signal (z-score),[25],-0.417
same,glycan array binding signal (z-score),[26],0.164
same,glycan array binding signal (z-score),[27],0.572
same,glycan array binding signal (z-score),[28],-0.494
same,glycan array binding signal (z-score),[29],0.49
same,glycan array binding signal (z-score),[30],-3.02
same,glycan array binding signal (z-score),[31],-0.794
same,glycan array binding signal (z-score),[32],-0.357

# Given with bars between the fields: part of the list above.
binder | measurement | setting | value
B1 | glycan array binding signal (z-score) | [9] | 0.081
same | glycan array binding signal (z-score) | [10] | -0.618
